# Primary screen of a compound library

Each number is a percent effect as filed.
The controls that fix the scale are not given in the record; negative values are as filed.
Compounds were drawn at random from those tested, without regard to their results.
Two or more numbers in one place are separate tests of the same structure; such repeats can differ widely.
A dash means the value is not listed here; it may have been measured.

T. brucei: 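Whole-parasite assay of Trypanosoma brucei over 72 hours; the read-out is not stated. Tested at 30 µM. Higher reads as stronger inhibition (inferred: compounds with an IC50 in retests scored well above the rest). Values scatter widely below zero; nearly all retest evidence comes from the higher of the two concentrations used. Of about 64,000 compounds tested this way, about 940 (1.5%) reached 50% or more in at least one test.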
Leishmania in macrophages: 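Cell assay of Leishmania donovani living inside macrophages; the read-out is not stated. Concentration: 30 µM. Higher reads as stronger inhibition (inferred: compounds with an IC50 in retests scored well above the rest). About 69,000 compounds were tested under these conditions; 1.5% (about 1,000) showed 50% or more at least once.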
Toxoplasma: 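Assay of Toxoplasma gondii numbers, read through their beta-galactosidase reporter with a colour substrate. Compounds at 10 µM. The record gives no direction; the compounds picked for IC50 retests had high values, so higher reads as fewer parasites. About 67,000 compounds were tested under these conditions; 0.38% (about 260) showed 50% or more at least once.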

| compound | T. brucei | Leishmania in macrophages | Toxoplasma |
|---|---|---|---|
| `CN1CCN(Cc2cnc3n2CCN(C(=O)c2ccncc2)C3)CC1` | -22.82 | -25.12 | -15.75 |
| `COCC(=O)N1CCC2(CC1)CC(=O)N(Cc1ccc(Cl)cc1)C2` | - | -16.35 | -29.32 |
| `CSc1cccc(NC(=O)N2CCC3(CCC(=O)N(C4CC4)C3)CC2)c1` | -5.939 | 18.36 | 0.4284 |
| `O=C(O)C(F)(F)F.O=C(O)C(F)(F)F.O=C(O)C(F)(F)F.[H][C@@]12CCN(Cc3cccnc3)C[C@]1([H])[C@H](C(=O)Nc1cccnc1)CCO2` | -27.43 | 29.65 | -8.821 |
| `Cc1cc(N)nc(SC2CCN(c3ccccc3F)C2=O)n1` (configuration not stated) | -7.178 | -5.285 | 9.577 |
| `Cc1nn(C)c2c(N3CCSCC3)nc(C3CC3)nc12` | -13.36 | 4.333 | 4.798 |
| `COCc1noc(Cn2c(=O)[nH]c3ccccc32)n1` | -41.22 | -18.58 | - |
| `CCc1cnc(CN2CCCC(c3cc(C)[nH]n3)C2)o1` (configuration not stated) | -56.52 | 39.52 | -10.67 |
| `O=C(O)C(F)(F)F.O=C(c1ccccc1)N1CCOC2(CCN(Cc3cccs3)CC2)C1` | -15.18 | 5.175 | 11.13 |
| `Cc1ccc(S(=O)(=O)NCCNc2cc(-n3cccc3)ncn2)c(C)c1` | 53.4 | 14.32 & 5.076 | -1.802 |
| `CCN(Cc1ccoc1)Cc1nc(COC)no1` | -10.22 | -36.42 | 4.348 |
| `CN1CSC[C@H]1C(=O)N1CCN(Cc2cccc(Cl)c2)CC1` | 9.567 | 11.24 | 9.931 |
| `COC(=O)C(NC(=O)c1ccc(N(C)C)nc1)c1ccccc1` (configuration not stated) | -31.64 | -38.96 | 1.018 |
| `CCCc1nc(CNc2cc(CS(C)(=O)=O)ccc2Cl)no1` | -9.017 | 14.58 | 0.3978 |
| `Cc1ncc(C(=O)N2C[C@H](CO)C[C@H](CN3CCOCC3)C2)c(=O)[nH]1` | -25.03 | -22.6 | 3.495 |
| `CCOc1ccc(C#N)cc1NCC(=O)OC` | -4.293 | 5.245 | -17.24 |
| `Cc1cc2occ(CC(=O)N3CCC4(CCCN(C)C4=O)C3)c2cc1Cl` (configuration not stated) | 2.516 | 10.63 | 14.64 |
| `CCc1cccc(C)c1NC(=O)c1ccccc1N(C)S(C)(=O)=O` | -45.44 | -9.101 | 27.77 |
| `[H][C@@]12CCN(CC3CCOCC3)[C@@]1([H])CCN2C(=O)c1ccco1` | 1.539 | 13.92 | 0.4992 |
| `CN(Cc1ccn[nH]1)Cc1c[nH]nc1-c1ccc(F)cc1` | -14.57 | 9.262 | -2.189 |
| `O=C(CCCc1ccccn1)N1CCC(Nc2cccnn2)CC1` | -28.54 | 5.112 | -20.46 |
| `Cc1ccc(N2CCCC(N(C)Cc3c(C)noc3C)C2)nn1` (configuration not stated) | -10.77 | 2.707 | - |
| `COCCOc1ccc(NC(=O)N(C(C)C)C2CC2)cn1` | -0.7402 | 32.9 | -8.048 |
| `CCNC(=O)Cn1ncc(N(C)CCc2ccccc2)cc1=O` | -42.54 | 12.67 | 6.513 |
| `C[S+]([O-])c1nncn1CCCc1ccc(Cl)cc1` (configuration not stated) | -26.27 | 0.5434 | -67.04 |
| `CCNc1ncc2c(n1)CN(c1cccc(OC)c1)C2=O` | -10.46 | -20.72 | 76.16 |
| `O=C(CCCc1nc(-c2ccccc2)no1)N1CCN(CCO)CC1` | -22.43 | 1.431 | 17.99 |
| `CC(=O)Cc1c(C)nn(-c2cncc(C(N)=O)c2)c1C` | 9.728 | 5.311 | 1.915 |
| `Fc1cccc(-c2nc(CN3CCOC(Cn4cncn4)C3)co2)c1` (configuration not stated) | -2.469 | -0.9371 | - |
| `CNC(=O)CC1c2cccnc2C(=O)N1Cc1ccccc1` (configuration not stated) | -14.85 | 14.05 | 8.041 |
| `O=C(N1CCCC1)N1CCOCC2(CCN(Cc3cccs3)C2)C1.O=C(O)C(F)(F)F` (configuration not stated) | -9.67 | 15.48 | -6.898 |
| `Cl.NC(c1ccc(Cl)cc1)c1cccs1` (configuration not stated) | -33.24 | 14.56 | 7.547 |
| `CCCN(Cc1ccc(S(=O)(=O)NC)cc1)Cc1ccccc1OC` | -16.24 | 6.445 | 5.175 |
| `CCCN(Cc1cnc2ccccc2n1)Cc1ccccc1OC` | 99.59 | 3.399 | -0.8394 |
| `O=C(c1cc[nH]n1)N(Cc1ccccc1)CC1CCC1` | -20.17 | 9.192 | -4.037 |
| `Cc1ccc(S(=O)(=O)NC(C)C#N)cc1Br` (configuration not stated) | -2.434 | 9.424 | 1.116 |
| `CN1C(=O)CCCC12CCCN(C(=O)c1cc(F)cc(F)c1)C2` (configuration not stated) | -35.65 | 6.949 | -10.59 |
| `Cn1c(C2CC2)nc2c1CCN(CC(=O)Nc1nncs1)C2` | 5.2 | 16.41 | -1.8 |
| `CC(C)CNC(=O)c1cc(C2CC2)nc2c1c(C1CCCN1)nn2C` (configuration not stated) | - | -2.355 | 5.544 |
| `NC(=O)CN1CCC2(CC1)CC(=O)c1ccc3ccccc3c1O2` | -9.116 | 11.62 | 11.8 |
| `Cc1nc(CNCc2cccc(OC34CCCN(CC3)C4)c2)n[nH]1` (configuration not stated) | 3.883 | 36.42 | 7.81 |
| `CCNC(=O)Cc1n[nH]c(-c2cncc(Br)c2)n1` | - | -72.67 | 15.13 |
| `C1CC(CN2CCCCC2C2OCCO2)C1` (configuration not stated) | -7.45 | 6.016 | 1.416 |
| `O=C(NS(=O)(=O)Cc1cc(-c2ccccc2)no1)C1CCOCC1` | -12.72 | 41.8 | 6.404 |
| `Cc1nc(Nc2nnc(C)s2)cc(C2CCCN2C(C)C)n1` (configuration not stated) | 3.715 | -0.9771 | 14.61 |
| `O=C1CN(Cc2nnc(-c3ccccc3Br)o2)CCN1` | 5.905 | 32.61 | -5.06 |
| `O=C(COc1cccc(Br)c1)N1CCN(c2nccs2)CC1` | -236.3 | -6.447 | -0.6608 |
| `O=C(Cn1cc(Cl)cn1)Nc1ccc2c(c1)OCCCO2` | 12.41 | 9.945 | 2.984 |
| `COc1cccc(C(=O)NS(=O)(=O)c2cccc(C#N)c2)c1` | -18.09 | 21.9 | -8.696 |
| `CC(C)c1nc2n(n1)CC(NCc1ccncc1)CC2` (configuration not stated) | 17.75 | -11.18 | -2.162 |
| `Cc1nc(C(C)C)sc1CNC(=O)CCCN1CCCCC1` | -39.16 | 48.78 | -5.865 |
| `Cc1ccccc1C(=O)N1CC(C(=O)NCC2CC2)C2(CCOCC2)C1` (configuration not stated) | -37.17 | -2.944 & 1.163 | 1.693 |
| `[H][C@@]12CS(=O)(=O)C[C@]1([H])N(C(=O)NCC)CCN2Cc1nc2ccccc2[nH]1` | -22.29 | 15.2 | -0.2658 |
| `CC(=O)N1CCN(c2cc(N3CCOCC3)cnn2)CC1` | 5.333 | -31.68 | 9.522 |
| `CSc1ncccc1C(=O)NCCC(O)c1ccco1` (configuration not stated) | 4.562 | 5.076 & 13.75 | -11.84 |
| `Cc1nc(CN2CCCn3cnc(COC(C)C)c3C2)cs1.O=C(O)C(F)(F)F` | -22.46 | 25.72 | -7.61 |
| `CC(C)OCCN(Cc1cccc(O)c1)C1CCC(O)CC1` (configuration not stated) | -26.85 | 6.683 | -0.7974 |
| `CCC(C)[C@H](NC(=O)c1ccc(F)cc1-n1cnnn1)C(=O)OC` (some centres not stated) | -15.95 | 1.129 | -60.78 |
| `O=C(CCC1CCCO1)NCc1ccc(Br)cc1F` (configuration not stated) | -61.29 | -14.96 | -0.4823 |
| `O=C(NCC1CC1)C1CN(c2ncccn2)Cc2ccnn2C1.O=C(O)C(F)(F)F.O=C(O)C(F)(F)F` (configuration not stated) | -3.96 | 17.33 | -6.631 |
| `NC(=O)c1csc(N2C[C@@H](CN3CCC(O)CC3)[C@@H](CO)C2)n1` | -12.99 | 39.67 | -11.46 |
| `CCOc1cncc(NCCc2nnc3ccccn23)n1` | -22.2 | 19.24 | -1.849 |
| `CC(C)COCC(C)NC(=O)NCc1cccc(-n2cncn2)c1` (configuration not stated) | 5.92 | -4.667 | -9.681 |
| `CCCC(O)CN1CC(C)(C)CN(C(=O)CCc2ccccc2)CC1=O` (configuration not stated) | -26.2 | -15.09 | -3.33 |

The first 5 entries again:

| compound | T. brucei | Leishmania in macrophages | Toxoplasma |
|---|---|---|---|
| `CN1CCN(Cc2cnc3n2CCN(C(=O)c2ccncc2)C3)CC1` | -22.82 | -25.12 | -15.75 |
| `COCC(=O)N1CCC2(CC1)CC(=O)N(Cc1ccc(Cl)cc1)C2` | - | -16.35 | -29.32 |
| `CSc1cccc(NC(=O)N2CCC3(CCC(=O)N(C4CC4)C3)CC2)c1` | -5.939 | 18.36 | 0.4284 |
| `O=C(O)C(F)(F)F.O=C(O)C(F)(F)F.O=C(O)C(F)(F)F.[H][C@@]12CCN(Cc3cccnc3)C[C@]1([H])[C@H](C(=O)Nc1cccnc1)CCO2` | -27.43 | 29.65 | -8.821 |
| `Cc1cc(N)nc(SC2CCN(c3ccccc3F)C2=O)n1` (configuration not stated) | -7.178 | -5.285 | 9.577 |

The values are deposited in ChEMBL (CHEMBL3988442, “University of Dundee, Small-Polar-MMV Screening Library” (2021)).